Data taken from paper PMC8160069.
No constants are given. Whether binding was seen depends on the method and setting. In cells and extracts the contact can be indirect. Some entries that bind do so weakly or less than the wild type. Tags and fused reporters may be left off the sequences shown.

Amino acid sequences for entries named in this document (tags omitted).
UniProt Q99683: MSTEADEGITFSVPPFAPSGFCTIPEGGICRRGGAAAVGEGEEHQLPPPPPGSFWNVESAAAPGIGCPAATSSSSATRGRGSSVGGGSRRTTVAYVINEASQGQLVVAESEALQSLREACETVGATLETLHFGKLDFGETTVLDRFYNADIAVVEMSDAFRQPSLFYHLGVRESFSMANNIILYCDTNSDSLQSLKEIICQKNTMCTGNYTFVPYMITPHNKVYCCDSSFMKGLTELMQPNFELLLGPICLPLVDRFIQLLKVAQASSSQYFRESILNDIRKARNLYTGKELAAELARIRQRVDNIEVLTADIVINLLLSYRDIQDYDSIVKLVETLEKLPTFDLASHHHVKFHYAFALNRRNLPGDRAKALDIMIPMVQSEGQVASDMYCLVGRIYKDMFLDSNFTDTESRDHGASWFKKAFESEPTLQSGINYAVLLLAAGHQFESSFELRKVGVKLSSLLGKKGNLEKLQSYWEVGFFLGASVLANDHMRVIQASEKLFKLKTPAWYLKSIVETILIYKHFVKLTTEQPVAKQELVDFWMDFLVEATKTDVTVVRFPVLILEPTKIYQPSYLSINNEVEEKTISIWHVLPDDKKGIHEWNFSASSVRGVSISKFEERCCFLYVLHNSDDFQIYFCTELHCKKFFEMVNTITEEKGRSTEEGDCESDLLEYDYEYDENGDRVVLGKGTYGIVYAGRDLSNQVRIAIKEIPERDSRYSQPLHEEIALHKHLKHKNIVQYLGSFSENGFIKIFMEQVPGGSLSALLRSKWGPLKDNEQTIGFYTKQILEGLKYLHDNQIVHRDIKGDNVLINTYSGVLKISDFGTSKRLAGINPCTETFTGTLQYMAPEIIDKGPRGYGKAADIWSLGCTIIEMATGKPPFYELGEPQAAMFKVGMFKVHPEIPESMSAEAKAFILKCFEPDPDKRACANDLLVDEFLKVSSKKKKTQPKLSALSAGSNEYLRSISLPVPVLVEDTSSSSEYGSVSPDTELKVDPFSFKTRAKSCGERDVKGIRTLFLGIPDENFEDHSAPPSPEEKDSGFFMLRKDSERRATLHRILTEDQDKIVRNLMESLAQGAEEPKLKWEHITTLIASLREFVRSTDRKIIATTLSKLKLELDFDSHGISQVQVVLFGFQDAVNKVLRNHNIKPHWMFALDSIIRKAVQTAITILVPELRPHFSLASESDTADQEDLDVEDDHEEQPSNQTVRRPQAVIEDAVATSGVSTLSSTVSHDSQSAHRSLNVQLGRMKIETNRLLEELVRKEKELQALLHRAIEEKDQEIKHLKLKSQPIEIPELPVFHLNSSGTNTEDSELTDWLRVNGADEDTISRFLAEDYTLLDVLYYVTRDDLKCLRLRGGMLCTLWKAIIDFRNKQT

Molecular target: FLAG-tagged ASK1 (UniProt Q99683)
Experiment: co-IP; FLAG-tagged ASK1 produced in HEK293T cells incubated with purified GSTM1 in the presence of EA and cela before immunoprecipitation; in vitro, performed in duplicate; only the binder purified

binding: binds
B1: GSTM1 (enzyme, UniProt P10649 1-218)
chain: MPMILGYWNVRGLTHPIRMLLEYTDSSYDEKRYTMGDAPDFDRSQWLNEKFKLGLDFPNLPYLIDGSHKITQSNAILRYLARKHHLDGETEEERIRADIVENQVMDTRMQLIMLCYNPDFEKQKPEFLKTIPEKMKLYSEFLGKRPWFAGDKVTYVDFLAYDILDQYRMFEPKCLDAFPNLRDFLARFEGLKKISAYMKSSRYIATPIFSKMAHWSNK
